Data as given in PubChem BioAssay AID1259254 (NCATS, 2017).

- Test: 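Genome-wide screen for genes that prevent DNA re-replication in cancer cells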 (primary screen)
- Cells: human HCT116 colorectal cancer cells
- Knock-down reagent: single siRNA against human genes
- Time to read-out: 3 days
- Measured: 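Imaged Hoechst DNA stain sorts each cell into a cycle phase by DNA amount; per plate, G2 fraction set to 0% for non-targeting and 100% for GMNN siRNA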
- Scale: G2 robust z-score: higher = more G2 cells, more excess DNA replication
- Active means: 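Active siRNAs have a G2 robust z of 5 or more median absolute deviations over the median, which in these data means about 38% or higher of GMNN control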
The whole screen tested about 59,000 reagents; shown is a part drawn at random. Of all reagents, about 1,550 (2.6%) were called active. 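G2 share is only a proxy for re-replication; each gene was hit by three separate siRNAs, and active genes were retested.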 Reagents against one gene are numbered here. Not all columns of the deposit are shown. The record does not give: the amount of reagent.

G2 robust z-score, by target gene and reagent
ICOSLG: #1 2.65 inactive; #2 -0.324 inactive; #3 -0.638 inactive
CFAP52: #1 -0.974 inactive; #2 -0.998 inactive; #3 -0.823 inactive
ZNFX1: #1 -0.597 inactive; #2 -1.1 inactive; #3 -0.732 inactive
ELOB: #1 -0.706 inactive; #2 -0.578 inactive; #3 0.162 inactive
PRDM12: #1 -1.26 inactive; #2 -0.449 inactive; #3 0.0399 inactive
PCDHAC2: #1 0.871 inactive; #2 2.08 inactive; #3 -0.493 inactive
PLVAP: #1 0.94 inactive; #2 -0.397 inactive; #3 -0.152 inactive
PLEKHJ1: #1 -1.02 inactive; #2 6.31 active; #3 -0.276 inactive
SLC45A3: #1 -0.714 inactive; #2 1.47 inactive; #3 -0.537 inactive
ENO4: #1 -1.38 inactive; #2 1.58 inactive; #3 -0.0644 inactive
RARRES2: #1 -0.439 inactive; #2 -1.49 inactive; #3 0.983 inactive
TMIGD2: #1 -0.837 inactive; #2 -0.385 inactive; #3 0.0892 inactive
LOC647264: #1 -0.173 inactive; #2 0.95 inactive; #3 0.3 inactive
FGF14-IT1: #1 0.096 inactive; #2 3.87 inactive; #3 7.32 active
NDUFS8: #1 -1.08 inactive; #2 -1.12 inactive; #3 6.69 active
PRKCQ: #1 -0.281 inactive; #2 -0.522 inactive; #3 -0.603 inactive
HBEGF: #1 -1.11 inactive; #2 -0.424 inactive; #3 0.709 inactive
AMFR: #1 0.258 inactive; #2 0.969 inactive; #3 -0.526 inactive
KCNK9: #1 -0.288 inactive; #2 1.06 inactive; #3 -0.888 inactive
RFTN2: #1 -0.698 inactive; #2 1.6 inactive; #3 0.139 inactive
ACTA1: #1 0.525 inactive; #2 3.62 inactive; #3 -0.302 inactive
ZNF322P1: #1 1.16 inactive; #2 -0.617 inactive; #3 2.3 inactive
PLEKHH2: #1 -0.559 inactive; #2 1.54 inactive; #3 -0.59 inactive
